Reference: paper PMC5011918
No constants are given. Whether binding was seen depends on the method and setting. Binding seen in cells or lysates may run through a third protein. Some binding calls cover weakened binding; strength is not graded here.

Amino acid sequences for entries named in this document (tags omitted).
UniProt P42771: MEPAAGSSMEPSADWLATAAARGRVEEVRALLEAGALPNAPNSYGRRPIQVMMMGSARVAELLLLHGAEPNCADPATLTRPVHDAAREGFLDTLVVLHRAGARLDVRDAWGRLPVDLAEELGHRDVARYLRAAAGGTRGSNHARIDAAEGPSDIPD
UniProt P02730: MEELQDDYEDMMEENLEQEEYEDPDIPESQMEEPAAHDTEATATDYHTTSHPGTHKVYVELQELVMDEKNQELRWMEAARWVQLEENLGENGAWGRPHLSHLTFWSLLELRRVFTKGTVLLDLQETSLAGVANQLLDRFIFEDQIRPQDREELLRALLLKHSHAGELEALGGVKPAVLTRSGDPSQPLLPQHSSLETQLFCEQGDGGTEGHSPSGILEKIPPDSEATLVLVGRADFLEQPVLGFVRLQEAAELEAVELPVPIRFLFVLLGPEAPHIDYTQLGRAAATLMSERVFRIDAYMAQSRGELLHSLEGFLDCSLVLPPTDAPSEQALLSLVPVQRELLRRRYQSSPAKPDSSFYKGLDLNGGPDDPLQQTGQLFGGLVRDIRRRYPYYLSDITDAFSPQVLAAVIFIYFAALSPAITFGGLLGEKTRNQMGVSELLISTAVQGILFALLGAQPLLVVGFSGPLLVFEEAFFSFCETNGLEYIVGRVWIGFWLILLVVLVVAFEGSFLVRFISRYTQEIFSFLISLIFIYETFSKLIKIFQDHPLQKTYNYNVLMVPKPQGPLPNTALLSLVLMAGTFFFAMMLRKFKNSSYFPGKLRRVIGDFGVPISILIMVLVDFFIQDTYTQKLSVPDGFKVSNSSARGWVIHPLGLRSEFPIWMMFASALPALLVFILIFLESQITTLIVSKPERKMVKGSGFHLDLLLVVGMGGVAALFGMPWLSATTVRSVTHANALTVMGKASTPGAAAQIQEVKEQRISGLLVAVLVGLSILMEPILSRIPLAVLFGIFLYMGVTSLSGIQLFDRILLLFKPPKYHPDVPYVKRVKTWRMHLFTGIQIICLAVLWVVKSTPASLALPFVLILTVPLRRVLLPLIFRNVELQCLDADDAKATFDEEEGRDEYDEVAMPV

Molecular target: p16 (human (endogenous in SGC7901)) (UniProt P42771)
Assay: co-IP; SGC7901 whole-cell lysate in RIPA buffer; anti-p16 antibody overnight at 4 °C, Protein G Plus/Protein A agarose 4 h at 4 °C; immunoblot for AE1, AE2 and p16; all proteins endogenous

Row | Molecule | binding
1 | Anion exchanger 1 (from UniProt P02730 1-911) | binds
2 | Anion exchanger 2 (protein, UniProt P04920 1-1241) MSSAPRRPAKGADSFCTPEPESLGPGTPGFPEQEEDELHRTLGVERFEEILQEAGSRGGEEPGRSYGEEDFEYHRQSSHHIHHPLSTHLPPDARRRKTPQGPGRKPRRRPGASPTGETPTIEEGEEDEDEASEAEGARALTQPSPVSTPSSVQFFLQEDDSADRKAERTSPSSPAPLPHQEATPRASKGAQAGTQVEEAEAEAVAVASGTAGGDDGGASGRPLPKAQPGHRSYNLQERRRIGSMTGAEQALLPRVPTDEIEAQTLATADLDLMKSHRFEDVPGVRRHLVRKNAKGSTQSGREGREPGPTPRARPRAPHKPHEVFVELNELLLDKNQEPQWRETARWIKFEEDVEEETERWGKPHVASLSFRSLLELRRTLAHGAVLLDLDQQTLPGVAHQVVEQMVISDQIKAEDRANVLRALLLKHSHPSDEKDFSFPRNISAGSLGSLLGHHHGQGAESDPHVTEPLMGGVPETRLEVERERELPPPAPPAGITRSKSKHELKLLEKIPENAEATVVLVGCVEFLSRPTMAFVRLREAVELDAVLEVPVPVRFLFLLLGPSSANMDYHEIGRSISTLMSDKQFHEAAYLADEREDLLTAINAFLDCSVVLPPSEVQGEELLRSVAHFQRQMLKKREEQGRLLPTGAGLEPKSAQDKALLQMVEAAGAAEDDPLRRTGRPFGGLIRDVRRRYPHYLSDFRDALDPQCLAAVIFIYFAALSPAITFGGLLGEKTQDLIGVSELIMSTALQGVVFCLLGAQPLLVIGFSGPLLVFEEAFFSFCSSNHLEYLVGRVWIGFWLVFLALLMVALEGSFLVRFVSRFTQEIFAFLISLIFIYETFYKLVKIFQEHPLHGCSASNSSEVDGGENMTWAGARPTLGPGNRSLAGQSGQGKPRGQPNTALLSLVLMAGTFFIAFFLRKFKNSRFFPGRIRRVIGDFGVPIAILIMVLVDYSIEDTYTQKLSVPSGFSVTAPEKRGWVINPLGEKSPFPVWMMVASLLPAILVFILIFMETQITTLIISKKERMLQKGSGFHLDLLLIVAMGGICALFGLPWLAAATVRSVTHANALTVMSKAVAPGDKPKIQEVKEQRVTGLLVALLVGLSIVIGDLLRQIPLAVLFGIFLYMGVTSLNGIQFYERLHLLLMPPKHHPDVTYVKKVRTLRMHLFTALQLLCLALLWAVMSTAASLAFPFILILTVPLRMVVLTRIFTDREMKCLDANEAEPVFDEREGVDEYNEMPMPV | binds
